# Where “and” joins values, the source holds several entries; their conditions need not be identical. Equal entries are not always repeated. The list shows a part of the results. For some of these results: The exact form of the protein is not confirmed.
# The chains behind the UniProt entries cited, without tags or fusion partners. Where a name states a change or a piece, a line headed by the entry shows the natural chain unless it says otherwise.
# UniProt Q9NQ60: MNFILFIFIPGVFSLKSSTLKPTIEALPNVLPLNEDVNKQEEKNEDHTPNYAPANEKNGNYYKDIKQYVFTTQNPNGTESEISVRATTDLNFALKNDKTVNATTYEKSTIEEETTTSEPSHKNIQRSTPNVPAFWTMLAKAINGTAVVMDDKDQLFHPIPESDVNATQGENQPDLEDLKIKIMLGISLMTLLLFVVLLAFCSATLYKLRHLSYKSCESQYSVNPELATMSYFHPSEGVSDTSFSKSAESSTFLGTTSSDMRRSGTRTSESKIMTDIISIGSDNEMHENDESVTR
# What was measured:
# Experiment in all cases: protein microarray (ProtoArray v5.0), streptavidin-Alexa Fluor 647
# Details in all cases: 3'-biotin; 20 mM Tris (pH 7.5), 5 mM MgCl2, 100 mM KCl, 0.1% Tween-20, A/T-rich and random oligonucleotide blockers; temperature not stated; high values mean tight binding
# C8A (human) = tested on: C8A (human)
# C8G (human) = tested on: C8G (human)
# C8orf43 (human) = tested on: C8orf43 (human)
# C8orf47 (human) = tested on: C8orf47 (human)
# C8orf76 (human) = tested on: C8orf76 (human)
# C9orf105 (human) = tested on: C9orf105 (human)
# C9orf11 = C9orf11 (UniProt Q9NQ60)
# C9orf148 (human) = tested on: C9orf148 (human)
# C9orf46 (human) = tested on: C9orf46 (human)
# C9orf58 (human) = tested on: C9orf58 (human)
sequence,measurement,setting,value
GGGAGGCTGAGGCAGG [G4-1 biotinylated (PQS2)],binding signal,C8A (human),-0.319 z-score
same,binding signal,C8G (human),-0.337 z-score
same,binding signal,C8orf43 (human),-0.357 z-score
same,binding signal,C8orf47 (human),-0.363 z-score
same,binding signal,C8orf76 (human),-0.302 z-score and -0.274 z-score
same,binding signal,C9orf105 (human),-0.294 z-score
same,binding signal,C9orf11,-0.238 z-score
same,binding signal,C9orf148 (human),-0.328 z-score
same,binding signal,C9orf46 (human),-0.307 z-score
same,binding signal,C9orf58 (human),-0.305 z-score

# 2 records picked at random from those above, as already listed:
sequence,measurement,setting,value
GGGAGGCTGAGGCAGG [G4-1 biotinylated (PQS2)],binding signal,C9orf105 (human),-0.294 z-score
same,binding signal,C8A (human),-0.319 z-score
